Results from PMC9501056.
No constants are given. Whether binding was seen depends on the method and setting. Binding seen in cells or lysates may run through a third protein.

What was measured:
[1] = molecular target: T1, BEI (Oryza sativa subsp. indica cv. IR36 (endogenous in developing seeds)) (UniProt Q01401); experiment: co-IP; soluble proteins of developing seeds of WT (IR36) at 5 DAF incubated with isozyme-specific antibodies and protein A magnetic beads; washed with PBS pH 7.4; Western blotting
T1 sequence: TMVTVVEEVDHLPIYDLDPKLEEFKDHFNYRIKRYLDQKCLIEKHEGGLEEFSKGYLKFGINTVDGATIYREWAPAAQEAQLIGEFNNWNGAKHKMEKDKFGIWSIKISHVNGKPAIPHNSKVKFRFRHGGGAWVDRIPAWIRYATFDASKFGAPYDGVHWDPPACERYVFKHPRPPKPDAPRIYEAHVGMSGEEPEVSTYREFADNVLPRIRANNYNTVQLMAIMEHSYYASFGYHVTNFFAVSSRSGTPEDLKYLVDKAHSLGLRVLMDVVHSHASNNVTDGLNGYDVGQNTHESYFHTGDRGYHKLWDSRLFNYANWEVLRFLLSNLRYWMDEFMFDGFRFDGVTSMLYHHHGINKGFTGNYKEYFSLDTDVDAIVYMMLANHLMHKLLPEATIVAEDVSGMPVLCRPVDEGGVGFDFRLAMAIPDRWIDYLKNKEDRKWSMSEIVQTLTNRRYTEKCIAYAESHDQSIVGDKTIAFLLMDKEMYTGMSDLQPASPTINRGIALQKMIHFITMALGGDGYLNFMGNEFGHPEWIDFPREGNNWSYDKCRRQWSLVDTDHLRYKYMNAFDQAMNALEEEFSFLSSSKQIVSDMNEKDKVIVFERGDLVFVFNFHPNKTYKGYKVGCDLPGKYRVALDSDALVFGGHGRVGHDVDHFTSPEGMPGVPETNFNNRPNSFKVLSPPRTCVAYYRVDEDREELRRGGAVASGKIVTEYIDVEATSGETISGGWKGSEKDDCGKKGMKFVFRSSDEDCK

[2] = molecular target: T2, SSIIa (Oryza sativa subsp. indica cv. IR36 (endogenous in developing seeds)) (UniProt P0C586); experiment: as above
T2 sequence: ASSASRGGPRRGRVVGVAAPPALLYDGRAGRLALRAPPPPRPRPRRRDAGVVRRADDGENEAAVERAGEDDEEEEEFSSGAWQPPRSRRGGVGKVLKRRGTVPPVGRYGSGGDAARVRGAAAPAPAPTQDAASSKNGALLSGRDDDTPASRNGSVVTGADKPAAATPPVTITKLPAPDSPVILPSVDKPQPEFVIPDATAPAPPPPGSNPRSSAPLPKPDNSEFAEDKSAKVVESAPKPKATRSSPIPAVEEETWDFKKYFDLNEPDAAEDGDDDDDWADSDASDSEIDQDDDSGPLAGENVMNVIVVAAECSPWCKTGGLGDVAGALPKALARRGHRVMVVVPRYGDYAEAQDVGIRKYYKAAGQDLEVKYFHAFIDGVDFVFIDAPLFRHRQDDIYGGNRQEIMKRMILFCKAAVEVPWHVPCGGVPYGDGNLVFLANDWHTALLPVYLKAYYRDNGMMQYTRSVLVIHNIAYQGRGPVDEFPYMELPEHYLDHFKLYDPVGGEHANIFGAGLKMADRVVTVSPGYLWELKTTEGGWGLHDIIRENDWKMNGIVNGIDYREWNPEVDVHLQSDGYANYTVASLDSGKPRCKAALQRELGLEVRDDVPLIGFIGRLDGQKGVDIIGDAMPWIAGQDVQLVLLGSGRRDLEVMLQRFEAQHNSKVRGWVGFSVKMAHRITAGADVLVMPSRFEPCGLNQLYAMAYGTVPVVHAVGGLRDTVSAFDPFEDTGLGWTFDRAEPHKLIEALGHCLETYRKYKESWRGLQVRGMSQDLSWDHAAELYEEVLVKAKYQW

[3] = molecular target: SSIIIa (Oryza sativa subsp. indica cv. IR36 (endogenous in developing seeds)); experiment: as above
[4] = substrate: T3, SSI (Oryza sativa subsp. indica cv. IR36 (endogenous in developing seeds)) (UniProt A2Y9M4); experiment: co-IP; soluble proteins of developing seeds of the be2b mutant at 10 DAF incubated with isozyme-specific antibodies and protein A magnetic beads; washed with PBS pH 7.4; Western blotting
T3 sequence: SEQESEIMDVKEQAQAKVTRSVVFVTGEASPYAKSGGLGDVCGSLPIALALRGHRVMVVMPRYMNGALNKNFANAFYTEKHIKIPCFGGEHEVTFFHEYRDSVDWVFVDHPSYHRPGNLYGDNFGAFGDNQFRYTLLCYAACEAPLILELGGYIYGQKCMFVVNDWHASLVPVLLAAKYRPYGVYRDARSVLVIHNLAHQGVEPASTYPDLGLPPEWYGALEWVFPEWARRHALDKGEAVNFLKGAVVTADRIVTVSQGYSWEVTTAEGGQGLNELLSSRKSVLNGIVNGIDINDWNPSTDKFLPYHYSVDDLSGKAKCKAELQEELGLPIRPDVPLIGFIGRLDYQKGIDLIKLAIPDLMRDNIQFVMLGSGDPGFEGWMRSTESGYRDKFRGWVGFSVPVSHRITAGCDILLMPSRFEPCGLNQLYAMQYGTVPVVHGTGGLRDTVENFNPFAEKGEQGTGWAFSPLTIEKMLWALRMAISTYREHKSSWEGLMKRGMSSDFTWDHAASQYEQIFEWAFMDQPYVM

[5] = molecular target: T1, BEI (Oryza sativa subsp. indica cv. IR36 (endogenous in developing seeds)); experiment: co-IP; soluble proteins of developing seeds of WT (IR36) at 15 DAF incubated with isozyme-specific antibodies and protein A magnetic beads; washed with PBS pH 7.4; Western blotting
[6] = molecular target: T2, SSIIa (Oryza sativa subsp. indica cv. IR36 (endogenous in developing seeds)); experiment: as above
[7] = molecular target: SSIIIa (Oryza sativa subsp. indica cv. IR36 (endogenous in developing seeds)); experiment: as above
[8] = substrate: T3, ; experiment: co-IP; soluble proteins of developing seeds of WT (IR36) at 5 DAF incubated with isozyme-specific antibodies and protein A magnetic beads; washed with PBS pH 7.4; Western blotting

Measured: binding

B1: ISA1 (enzyme, UniProt D0TZF0 55-803)
chain: SVASAVEVGVGEDEEEGVEEEEEEVEAVVMPERYALGGACRVLAGMPAPLGATALDGGVNFAVYSAGASAASLCLFTPDDLEADEVTEEVPLDPLFNRTGNVWHVFIEGELHNMLYGYRFDGMFAPHCGQYFDVSNVVVDPYAKAVISRGEYGVPGPGGDCWPQMAGMIPLPYSTFDWQGDLPLRYPQKDLVIYEMHLRGFTKHSSSNVEHPGTYIGAISKLDYLKELGVNCVELMPCHEFNELEYFSCSSKMNFWGYSTINFFSPMIRYSSGGIRNCGRDAINEFKTFVREAHKRGIEVIMDVVFNHTAEGNEKGPILSFRGIDNSTYYMLAPKGEFYNYSGCGNTFNCNHPVVREFIVDCLRYWVTEMHVDGFRFDLASIMTRGCSLWDPVNVYGSPVEGDMTTTGTPLATPPLIDMISNDPILGDVKLIAEAWDAGGLYQVGQFPHWKIWSEWNGKYRDIVRQFIKGTDGFAGGFAECLCGSPHLYQAGGRKPWHSINFVCAHDGFTLADLVTYNKKYNSSNGEDNRDGENHNLSWNCGEEGEFAGLSVKRLRKRQMRNFFVSLMVSQGVPMFYMGDEYGHTKGGNNNTYCHDHYVNYFRWDKKEESSDLQRFCSLMTKFRKQCESLGLADFPTAQRLHWHGHQPGKPDWSETSRFVAFSTKDETKGEIYVAFNASHLPAVVGLPERPGYRWEPLVDTGKPAPYDFLTDDLPDRAHAVHLFSHFLNSNLYPMLSYSSIILELQPDD
no binding: [1] | [2] | [3] | [4] | [5] | [6] | [7] | [8]
